Our source for the binding values is publication PMC8657799.

Amino acid sequences for entries named in this document (tags omitted). A change or cut given only in a name is not applied to a line headed by its entry.
UniProt A2AGA4: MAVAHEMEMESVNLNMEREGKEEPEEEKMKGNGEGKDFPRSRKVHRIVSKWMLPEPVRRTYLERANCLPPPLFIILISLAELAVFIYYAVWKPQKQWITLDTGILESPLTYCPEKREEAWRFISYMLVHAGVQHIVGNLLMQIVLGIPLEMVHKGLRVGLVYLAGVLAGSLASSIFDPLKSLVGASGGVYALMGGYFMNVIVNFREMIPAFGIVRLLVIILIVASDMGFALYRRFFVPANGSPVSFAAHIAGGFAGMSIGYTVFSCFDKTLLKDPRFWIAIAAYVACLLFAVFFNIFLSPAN
UniProt Q96D31: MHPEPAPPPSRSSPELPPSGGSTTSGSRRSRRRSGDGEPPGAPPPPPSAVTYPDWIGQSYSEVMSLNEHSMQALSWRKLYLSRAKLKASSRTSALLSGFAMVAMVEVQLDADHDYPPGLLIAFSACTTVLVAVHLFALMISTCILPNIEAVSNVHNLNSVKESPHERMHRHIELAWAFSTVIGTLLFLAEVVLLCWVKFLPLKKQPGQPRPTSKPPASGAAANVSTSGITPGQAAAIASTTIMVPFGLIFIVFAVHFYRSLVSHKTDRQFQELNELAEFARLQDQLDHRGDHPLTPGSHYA

Results are given in words; binding and its absence hold for the method and conditions named. In cells and extracts the contact can be indirect. Binding calls can cover weak binding; strength is not graded here.

The target in the first assay is 3xHA-RHBDL2-SA (serine-to-alanine catalytic mutant of RHBDL2) (mouse) (UniProt A2AGA4). Kind of assay: co-IP; HA antibody-coupled beads, 2-3 h at 4°C, lysates of HEK293 cells co-expressing 3xHA-RHBDL2 (WT or SA) and V5-hOrai1 forms for 24 h; 1% Triton X-100, 150 mM NaCl, 50 mM Tris-HCl pH 7.4; blotted for V5 and HA; in Figure 7D cells were kept for 5 min before lysis in 2 mM Ca2+ or in Ca2+-free solution with 1 mM EGTA.
Consider “V5-hOrai1 (wild type) (from UniProt Q96D31 1-301)”, for which the binding entry was “binds”.
Still for that read-out and setting: next, “V5-hOrai1 F99Y (from UniProt Q96D31 1-301)”: “binds”; “V5-hOrai1 G98C (from UniProt Q96D31 1-301)”: “binds weakly”; “V5-hOrai1 G98S (from UniProt Q96D31 1-301)”: “binds”.
The same measure, in the same setting: next, “V5-hOrai1 H134A (from UniProt Q96D31 1-301)”: “binds”; “V5-hOrai1 H134S (from UniProt Q96D31 1-301)”: “binds”.
The same measure, in the same setting: the value for “V5-hOrai1 H134T (from UniProt Q96D31 1-301)” was “binds”.
As for “V5-hOrai1 H134V (from UniProt Q96D31 1-301)”, the binding entry is on record as “binds”.
On the same count and under the same terms, the value for “V5-hOrai1 H134W (from UniProt Q96D31 1-301)” was “binds weakly”; that for “V5-hOrai1 R91W (from UniProt Q96D31 1-301)” was “binds weakly”.
Take “V5-hOrai1 V102A (from UniProt Q96D31 1-301)”: the binding result is “binds”.

Another assay addresses RHBDL2 deletion mutant ΔN internal (mouse) (UniProt A2AGA4). The assay is described as above.
As for “V5-hOrai1 (wild type) (from UniProt Q96D31 1-301)”, the binding result is on record as “binds”.

For the next assay, the target named is RHBDL2 with deletion of the initial 31 amino acids of the cytoplasmic domain (mouse) (UniProt A2AGA4). The assay is described as above.
Turning to “V5-hOrai1 (wild type) (from UniProt Q96D31 1-301)”, the binding result is on record as “binds”.
